In doi:10.1101/040543:
Results are given in words; binding and its absence hold for the method and conditions named. For part of these data: In cells and extracts the contact can be indirect. Some results given as binding are weak or reduced against the parent protein; the word gives no strength. For part of these data: Tags and fused reporters may be left off the sequences shown.

T1: PARAQUAT TOLERANCE3 (PQT3), full-length, two-hybrid bait in pDEST32 (Arabidopsis thaliana) (UniProt F4JP52)
T1 sequence: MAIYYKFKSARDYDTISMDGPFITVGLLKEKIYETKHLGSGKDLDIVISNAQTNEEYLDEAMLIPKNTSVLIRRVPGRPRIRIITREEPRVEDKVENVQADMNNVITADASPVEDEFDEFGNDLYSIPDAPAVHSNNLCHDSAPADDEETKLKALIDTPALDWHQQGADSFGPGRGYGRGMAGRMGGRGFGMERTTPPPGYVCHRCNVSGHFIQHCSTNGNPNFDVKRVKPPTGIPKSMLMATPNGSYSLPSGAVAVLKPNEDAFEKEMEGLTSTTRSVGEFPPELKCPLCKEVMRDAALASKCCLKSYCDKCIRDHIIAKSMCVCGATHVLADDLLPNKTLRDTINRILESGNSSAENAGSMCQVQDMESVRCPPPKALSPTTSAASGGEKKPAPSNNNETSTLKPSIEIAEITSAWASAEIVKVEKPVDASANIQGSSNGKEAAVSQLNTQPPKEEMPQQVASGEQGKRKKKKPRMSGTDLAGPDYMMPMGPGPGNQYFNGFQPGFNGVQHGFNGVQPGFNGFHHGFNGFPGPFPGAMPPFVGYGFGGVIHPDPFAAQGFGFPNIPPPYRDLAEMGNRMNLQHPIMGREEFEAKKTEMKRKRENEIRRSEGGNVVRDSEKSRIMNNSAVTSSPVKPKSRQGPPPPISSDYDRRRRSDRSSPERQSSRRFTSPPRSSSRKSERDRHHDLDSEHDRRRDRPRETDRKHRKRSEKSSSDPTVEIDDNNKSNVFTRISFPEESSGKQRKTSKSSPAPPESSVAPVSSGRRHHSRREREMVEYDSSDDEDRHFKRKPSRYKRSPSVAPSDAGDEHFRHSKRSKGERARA

T2: NE-PQT3 (the N-terminal part of YFP fused with PQT3) (Arabidopsis thaliana) (UniProt F4JP52)
T2 sequence: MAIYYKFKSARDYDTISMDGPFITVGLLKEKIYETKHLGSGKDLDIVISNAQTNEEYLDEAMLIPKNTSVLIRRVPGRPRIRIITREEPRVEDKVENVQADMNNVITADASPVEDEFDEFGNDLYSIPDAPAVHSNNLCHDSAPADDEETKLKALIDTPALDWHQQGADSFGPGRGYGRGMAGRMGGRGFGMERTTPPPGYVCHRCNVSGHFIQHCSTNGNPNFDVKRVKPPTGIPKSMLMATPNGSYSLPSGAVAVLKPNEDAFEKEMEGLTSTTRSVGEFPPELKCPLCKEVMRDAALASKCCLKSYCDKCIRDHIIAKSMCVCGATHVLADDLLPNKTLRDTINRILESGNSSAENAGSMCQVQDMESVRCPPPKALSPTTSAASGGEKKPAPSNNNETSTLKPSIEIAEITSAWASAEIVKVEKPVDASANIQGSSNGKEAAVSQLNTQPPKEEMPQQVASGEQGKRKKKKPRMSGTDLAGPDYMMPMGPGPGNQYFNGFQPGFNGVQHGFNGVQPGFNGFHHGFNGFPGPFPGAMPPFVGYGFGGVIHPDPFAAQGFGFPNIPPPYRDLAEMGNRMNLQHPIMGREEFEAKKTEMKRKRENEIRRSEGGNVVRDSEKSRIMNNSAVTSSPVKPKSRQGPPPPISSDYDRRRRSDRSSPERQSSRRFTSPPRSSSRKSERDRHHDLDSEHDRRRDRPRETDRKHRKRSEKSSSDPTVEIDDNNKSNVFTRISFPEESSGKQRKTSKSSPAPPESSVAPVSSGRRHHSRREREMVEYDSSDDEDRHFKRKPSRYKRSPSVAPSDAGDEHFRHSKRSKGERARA


Columns and labels:
[1] = molecular target: T1, PARAQUAT TOLERANCE3 (PQT3), full-length, two-hybrid bait in pDEST32 (Arabidopsis thaliana); assay: two-hybrid
[2] = molecular target: T2, NE-PQT3 (the N-terminal part of YFP fused with PQT3) (Arabidopsis thaliana); assay: split reporter

| binding [2] | Binder | binding [1] |
| --- | --- | --- |
|  | PRMT4a, two-hybrid partner of PQT3 (protein, UniProt A3KPF2 1-528) MEIPSLNKQQEFTLASVTDLTSPSSSLSSSPVVATFSCVNEVKELRFQESKSSDGFSFDLSSTQLFKLGPLQFTCVSDGSISSAKEKSSFSRGVVIKFRDEKDSKEFCDSFEECKKDDAVKQGSALPNGTVVSANKSKFDDKIEAASAKMYFHYYGQLLHQQNMLQDYVRTGTYHAAVMENRSDFSGRVVVDVGAGSGILSMFAALAGAKHVYAVEASEMAEYARKLIAGNPLLAERITVIKGKIEDIELPEKADVLISEPMGTLLVNERMLETYVIARDRFLSPNGKMFPTVGRIHMAPFADEFLFVEMANKALFWQQQNYYGVDLTPLYVSAHQGYFSQPVVDAFDPRLLVAPSMFHVIDFTMMTEEQFYEIDIPLKFTASVCTRIHGLACWFDVLFDGSTVQRWFTTAPGAPTTHWYQIRCVLSQPIHVMAGQEITGRLHLIAHSAQSYTINLTLSAKMWGPGANQGGILQTSSCKLDLKEPYYRMSQPQVYPTQEPPAQSQDIHIHSDDLEELELLQQNANAQL | no binding |
|  | PRMT4b, two-hybrid prey in pDEST22 (protein, UniProt Q84W92 1-535) MEVSSVKKLEQLEYSLESVTDLSSSSVSSSSPAVATFSYVDGVTELRFLQSDSTHCFNFDLASAQLFKLGPVHFICVSDGSSSSEEKSFSKGVNIKFKNEKDSKDFCESFEEWRNDSVVQGSSLQNGTVSANKSKFDNKIEASSAKMYFHYYGQLLHQQNMLQDYVRTGTYYAAVMENHSDFAGRVVVDVGAGSGILSMFAAQAGAKHVYAVEASEMAEYARKLIAGNPLFADRITVIKGKVEDIELPEKADILISEPMGTLLVNERMLESYVIARDRFMTPKGKMFPTVGRIHMAPFSDEFLFIEMANKAMFWQQQNYYGVDLTPLYGSAHQGYFSQPVVDAFDPRLLVASPMFHMIDFTQMKEEDFYEIDIPLKFTASMCTRMHGLACWFDVLFDGSTVQRWLTTAPGAPTTHWYQIRCVLSQPIYVMAGQEITGRLHLIAHSAQSYTIDLTLSAKMWGPGASQGGILQSSTCKFDLKEPYYRMSQPQAYPVAQEPPLQPQPELSTQQDIQTPNDELEEELLQQLPQNPSAQL | binds |
| binds | CE-PRMT4b (the C-terminal part of YFP fused with PRMT4b) (protein, UniProt Q84W92 1-535) MEVSSVKKLEQLEYSLESVTDLSSSSVSSSSPAVATFSYVDGVTELRFLQSDSTHCFNFDLASAQLFKLGPVHFICVSDGSSSSEEKSFSKGVNIKFKNEKDSKDFCESFEEWRNDSVVQGSSLQNGTVSANKSKFDNKIEASSAKMYFHYYGQLLHQQNMLQDYVRTGTYYAAVMENHSDFAGRVVVDVGAGSGILSMFAAQAGAKHVYAVEASEMAEYARKLIAGNPLFADRITVIKGKVEDIELPEKADILISEPMGTLLVNERMLESYVIARDRFMTPKGKMFPTVGRIHMAPFSDEFLFIEMANKAMFWQQQNYYGVDLTPLYGSAHQGYFSQPVVDAFDPRLLVASPMFHMIDFTQMKEEDFYEIDIPLKFTASMCTRMHGLACWFDVLFDGSTVQRWLTTAPGAPTTHWYQIRCVLSQPIYVMAGQEITGRLHLIAHSAQSYTIDLTLSAKMWGPGASQGGILQSSTCKFDLKEPYYRMSQPQAYPVAQEPPLQPQPELSTQQDIQTPNDELEEELLQQLPQNPSAQL |  |
